This series deals with UmuD (Escherichia coli). Briefly: EMSA. The settings on record: UmuD alone; EMSA: LI-COR Odyssey binding buffer (10x = 100 mM Tris, 500 mM KCl, 10 mM DTT, pH 7.5), 25 mM DTT, 1 ug/uL poly(dI-dC), 200 fmol probe per 20 uL; recombinant protein; label: 5' IRDye700 on both strands. A general note: In EMSA bound probe runs differently from free probe, usually more slowly.

The exact form of at least one protein or probe is not confirmed. Negatives hold for the conditions tested.

For the sequence “TCGTCAACTTGAAAATGTAACTTTTTCAAGTTACATT (double strand) [WT 37 bp UmuDAb operator probe]”, the binding result is “no binding”.

Source of the values: article PMC11332147.
